# In all, about 330,000 compounds went through this assay and about 7,700 (2.3%) were called active. Inconclusive means that the source gave no clear call. Such entries were picked first, then a sample of the others. The call rests on the fitted dose curve; in most records, active means well fitted inhibition curve with a large enough effect; inconclusive means small, poorly fitted or top-dose-only effect, or effect the other way; inactive means flat fitted curve, though single readings scatter. Potencies beside an inconclusive call are fits to weak or partial responses and may not hold up.
# Assay: qHTS screen for small molecules that inhibit ELG1-dependent DNA repair in human embryonic kidney (HEK293T) cells expressing luciferase-tagged ELG1; further: nearly all actives have a fitted effect of over 55% in size
# Settings: HEK293T ELG1-luciferase reporter, luminescence, 16 h, DNA damage induced by 5-fluorouridine; series mostly up to 46.1 µM
# How it was run: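 5-Fluorouridine DNA damage + compound/DMSO, 2,000 cells/well, 16 h, 37 °C/5% CO2. ONE-Glo, 30 min RT, luminescence. Readout = decrease in reporter signal.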
# Potency means the concentration at half of the fitted maximal effect.
row,SMILES,Potency
1,COC(=O)C(O)(c1ccc(NC(=S)NC(=O)c2ccccc2)cc1)C(F)(F)F (stereo not given),"inconclusive: 4.61 µM [activator, single point]"
2,CN(C)c1ccc(NC(=O)CN2C(=O)CN=C(c3ccccc3)c3cc(Cl)ccc32)cc1,"inconclusive: 18.4 µM [inhibitor, partial curve]"
3,CCC(=NCCc1ccccc1)c1c(O)n(C)c(=O)n(C)c1=O,"inconclusive: 13 µM [inhibitor, partial curve]"
4,C[C@]12CCC(OC(=O)CCC(=O)O)CC1=CCC1C2CC[C@]2(C)C(=O)CCC12 (stereo not given in full),inactive
5,N=C1c2ccccc2CN1c1cccc([N+](=O)[O-])c1,inactive
6,CCC(=NCc1ccco1)c1c(O)n(-c2ccccc2C)c(=O)[nH]c1=O,inactive
7,CC(C)C[C@H](NP(=O)(O)O[C@@H]1O[C@@H](C)[C@H](O)[C@@H](O)[C@H]1O)C(=O)N[C@@H](Cc1c[nH]c2ccccc12)C(=O)O,inactive
8,Cc1ccc2c(c1)C1CN(C)CCC1N2C(=O)c1cn(-c2ccccc2)nc1-c1ccccc1 (stereo not given),"inconclusive: 23.1 µM [inhibitor, partial curve]"
9,O=C(Nc1ccc(Cl)cc1)Nc1ccc(Cl)c(Cl)c1,"inconclusive: 11.6 µM [activator, partial curve]"
10,CC(C)Oc1cccc(C(=O)C2CCCN(C3CCOCC3)C2)c1 (stereo not given),"inconclusive: 23.1 µM [activator, partial curve, poor fit]"
11,CC1(C)CC(CCNCc2ccc3c(c2)OCO3)(Cc2ccccc2)CCO1 (stereo not given),inactive
12,O=C(N/N=C/c1c(O)n(C2CCCCC2)c(=S)[nH]c1=O)c1ccccc1O,"inconclusive: 20.6 µM [activator, single point]"
13,ClC1=C(Cl)C(Cl)=C(Cl)C1=C/C=C/c1ccccc1,"inconclusive: 29.1 µM [inhibitor, single point]"
14,Oc1cccc2nc3ccccc3nc12,inactive
15,COc1cc(/C=C/[N+](=O)[O-])ccc1OC(=O)c1cccnc1,"inconclusive: 29.1 µM [inhibitor, single point]"
16,S=C=Nc1ccccn1,"inconclusive: 23.1 µM [activator, partial curve, poor fit]"
17,O=c1c2ccccc2c(C=Nc2ccc(O)cc2)c(O)n1Cc1ccccc1,"inconclusive: 4.61 µM [activator, full curve, poor fit]"
18,COc1ccc(C(=O)N2CCC3(CC2)OCCO3)cc1,inactive
19,CCCCCCCSc1cc(OC)c(CCN(C)C)cc1OC,"inconclusive: 23.1 µM [inhibitor, single point]"
20,COc1ccccc1N1CCN(C2CCCN(C(=O)COc3ccccc3Cl)C2)CC1 (stereo not given),"inconclusive: 20.6 µM [inhibitor, single point]"
21,COC(=O)C1=C(c2c(C)noc2C)C[C@@H]2CC[C@H]1N2C(=O)NCc1ccc(C(F)(F)F)cc1,inactive
22,CC(C)CC(NC(=O)CCCNC(=O)CCC(=O)OC1O[C@H]2OC3(C)CC[C@H]4[C@H](C)CCC(C1C)C24OO3)C(=O)O (stereo not given in full),"inconclusive: 1.3 µM [inhibitor, partial curve]"
23,CCN(CC)C(=O)c1ccc(NC(=O)c2cn(-c3ccccc3)nc2-c2ccc(OC)cc2)cc1,active: 13 µM
24,CC1=CC(=C2C(=O)NC(=O)NC2=O)C=C(C(F)(F)F)N1Cc1ccccc1,"inconclusive: 18.3 µM [inhibitor, partial curve, poor fit]"

row,SMILES,Potency
1,COc1cccc(OCc2cc(C(=O)N3C[C@H]4C[C@@H](C3)c3cccc(=O)n3C4)no2)c1,"inconclusive: 29.1 µM [activator, single point]"
2,CN1CCN(c2ccc([N+](=O)[O-])c3cccnc23)CC1,inactive
3,NC(=O)CN1CCCC1=O,"inconclusive: 14.6 µM [activator, partial curve, poor fit]"
4,COc1cc2c(cc1OC)C(C)NCC2 (stereo not given),inactive
5,CC1CN2c3ccc([N+](=O)[O-])cc3CC3(C(=O)N(C)C(=O)N(C)C3=O)C2C(C)O1 (stereo not given),"inconclusive: 2.91 µM [inhibitor, partial curve, poor fit]"
6,Nc1ccccc1C(=O)OCC(=O)c1ccc2c(c1)OCCO2,"inconclusive: 8.2 µM [activator, partial curve]"
7,Cc1ccccc1-n1c(O)c(/C=N/c2nccs2)c(=O)[nH]c1=O,"inconclusive: 25.9 µM [activator, partial curve, poor fit]"
8,C[C@]12CCC3C(CC[C@H]4C[C@@H](O)CC[C@]34C)C1C[C@@H](O)C2=O (stereo not given in full),"inconclusive: 20.6 µM [inhibitor, single point]"
9,CC(C)(C)c1cc([N+](=O)[O-])cc(C(C)(C)C)c1O,"inconclusive: 4.11 µM [inhibitor, single point]"
10,CC1(C)CN=C(Nc2ccc(F)c(Cl)c2)S1,"inconclusive: 29.1 µM [activator, single point]"
11,CCCCCCOC(=O)c1ccccc1N,"inconclusive: 23.1 µM [activator, partial curve]"
12,C=CCN1C(=O)NC(=O)/C(=C/c2ccc(N(C)C)c(Br)c2)C1=O,inactive
13,O=C(Oc1ccccc1)c1cccc(COC(=O)c2cnccn2)c1,"inconclusive: 16.4 µM [activator, partial curve]"
14,CCOc1ccc(-c2cc(C)[n+](CCc3ccc(OC)c(OC)c3)c(-c3ccc(OCC)cc3)c2)cc1,"inconclusive: 29.1 µM [activator, single point]"
15,CC1C(OC(=O)CCC(=O)NC(C)(C)CO)O[C@H]2OC3(C)CC[C@H]4[C@H](C)CCC1C24OO3 (stereo not given in full),active: 1.16 µM
16,COc1cc(N2CCOCC2)ccc1/C=C1\C(=O)NC(=O)N(Cc2ccc3c(c2)OCO3)C1=O,inactive
17,Nc1ccccc1Cl,inactive
18,COc1ccc(-n2c(/C=C3/C(=O)Nc4ccccc43)nc3ccccc3c2=O)cc1,inactive
19,O=C1NC(=O)C2(Cc3ccccc3N3CCCC32)C(=O)N1c1ccc(Cl)cc1 (stereo not given),inactive
20,CCCCCCn1c(O)c(C=NCCCn2ccnc2)c(=O)[nH]c1=O,inactive
21,COc1ccc2c3c1OC1C(O)C=CC4[C@@H](C2)N(C)CC[C@]314 (stereo not given in full),inactive
22,CC(=O)OC(CC(=O)O)C[N+](C)(C)C (stereo not given),active: 18.4 µM
23,COc1ccc2nc(NC3=NCCN3)sc2c1,"inconclusive: 8.2 µM [activator, partial curve]"
24,CCOc1ccccc1Oc1coc2cc(OC(=O)N(C)C)ccc2c1=O,"inconclusive: 16.4 µM [activator, partial curve]"

# Five entries from above, with tabs.
row	SMILES	Potency
21	COC(=O)C1=C(c2c(C)noc2C)C[C@@H]2CC[C@H]1N2C(=O)NCc1ccc(C(F)(F)F)cc1	inactive
22	CC(C)CC(NC(=O)CCCNC(=O)CCC(=O)OC1O[C@H]2OC3(C)CC[C@H]4[C@H](C)CCC(C1C)C24OO3)C(=O)O (stereo not given in full)	inconclusive: 1.3 µM [inhibitor, partial curve]
23	CCN(CC)C(=O)c1ccc(NC(=O)c2cn(-c3ccccc3)nc2-c2ccc(OC)cc2)cc1	active: 13 µM
24	CC1=CC(=C2C(=O)NC(=O)NC2=O)C=C(C(F)(F)F)N1Cc1ccccc1	inconclusive: 18.3 µM [inhibitor, partial curve, poor fit]
1	COc1cccc(OCc2cc(C(=O)N3C[C@H]4C[C@@H](C3)c3cccc(=O)n3C4)no2)c1	inconclusive: 29.1 µM [activator, single point]

# (next part)

row,SMILES,Potency
1,Cc1cc(N2C(=O)C3CCCN3C2c2ccccc2)no1 (stereo not given),"inconclusive: 29.1 µM [activator, partial curve, poor fit]"
2,[N-]=[N+]=NCCN1CCC(O)CCC1=O (stereo not given),inactive
3,CCCCCCCCCCCCn1ccc(=N)cc1,active: 5.8 µM
4,O=C1NCCOC(=O)[C@H](Cc2ccc(F)cc2)CC/C=C/C[C@H]1CC(=O)N(CCO)Cc1ccccc1,"inconclusive: 1.16 µM [inhibitor, single point]"
5,CC(C)OC(=O)C1C(=O)NC2(C)CC1c1ccccc1O2 (stereo not given),inactive
6,COc1ccc(-n2nc(C(=O)NCC(=O)N3CCC4(CC3)OCCO4)c3ccccc3c2=O)cc1Cl,"inconclusive: 9.2 µM [activator, partial curve]"
7,COc1ccccc1N1CCN(Cc2ccc(Br)cc2)CC1,"inconclusive: 10 µM [inhibitor, partial curve, poor fit]"
8,CC(C(O)c1ccccc1)N(C)CCn1cnc2c1c(=O)n(C)c(=O)n2C (stereo not given),"inconclusive: 29.1 µM [inhibitor, single point]"
9,O=C(Nc1cccc(Br)c1)c1c(O)c2c(n(Cc3ccccc3)c1=O)CCCC2,inactive
10,COC(=O)C1=C(c2ccc(-c3ccccc3)c(F)c2)C[C@@H]2CC[C@H]1N2C(=O)NCCCOC(C)C,inactive
11,COC(=O)C1=C(c2ccccc2OCc2ccccc2)C[C@@H]2CC[C@H]1N2C(=O)NCCc1ccc(F)cc1,active: 20.6 µM
12,COC(=O)C1=C(c2ccc(F)cc2OCc2ccccc2)C[C@@H]2CC[C@H]1N2C(=O)NCc1cccc(F)c1,"inconclusive: 20.6 µM [inhibitor, partial curve]"
13,COc1ccc(-c2cc(=NCC(=O)O)c3ccccc3o2)cc1,"inconclusive: 13 µM [activator, partial curve]"
14,CC(=O)c1ccc(OC(=O)N(C)c2ccccc2)cc1,"inconclusive: 18.3 µM [activator, partial curve]"
15,CC(C)CCn1c(=O)c(C(=O)NCc2ccco2)c(O)c2ccccc21,"inconclusive: 29.1 µM [inhibitor, single point]"
16,CCOc1ccc(-c2cc(C)[n+](CCN(CC)CC)c(-c3ccc(OCC)cc3)c2)cc1,"inconclusive: 2.59 µM [inhibitor, partial curve]"
17,O=C(Nc1cccc(Cl)c1)c1c(O)c2c(n(Cc3ccco3)c1=O)CCCC2,"inconclusive: 14.6 µM [activator, partial curve]"
18,CC(C)N1OC2CC1c1nc3ccccc3n1C2 (stereo not given),"inconclusive: 7.3 µM [activator, partial curve, poor fit]"
19,CC(N=Cc1c(O)[nH]c(=O)[nH]c1=O)c1ccccc1 (stereo not given),inactive
20,Cc1ccc(C(=O)C2CN(C)CC2C(=O)c2ccc(C)cc2)cc1 (stereo not given),"inconclusive: 29.1 µM [activator, single point]"
21,c1ccc(CNc2c3c(nc4ccccc24)CCC3)cc1,inactive
22,CN(C)c1ccc(/C=C/C=C/c2sc3ccccc3[n+]2C)cc1,"inconclusive: 8.2 µM [inhibitor, partial curve]"

# — PubChem BioAssay AID504467 (National Center for Advancing Translational Sciences (NCATS), 2011)
